According to PubChem BioAssay AID2685 (National Center for Advancing Translational Sciences (NCATS), 2010):
Some of the results follow. Further columns of the screen follow, without active or inactive calls. The list favours compounds with an active or inconclusive main result. The note in brackets gives the kind of curve behind each potency; many fits are weak.

Assay: qHTS Assay for Lipid Storage Modulators in Drosophila S3 Cells;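 on cell number change: cells counted by Cell Tracker Red CMTPX staining in the red channel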
Conditions: BODIPY lipid droplet fluorescence, 18-24 h; for cell number change: measured here: cell count max response, cells fed with added oleic acid
Outline: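 Laser-scanning cytometry quantifies lipid droplet accumulation (500–530 nm total intensity; droplet/cell object ratio) in oleic acid-fed (400 uM added) Drosophila S3 cells treated with a concentration series. 20 uM Triacsin C defined 100% inhibition.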

[1] = measured here: lipid fluorescence (Fed channel) AC50, cells fed with added oleic acid
[2] = measured here: cell number channel AC50, cells fed with added oleic acid

Compound	cell number change [%]	AC50 [1]	AC50 [2]
CN1/C(=C\P(=O)(N(C)C)N(C)C)C(C)(C)c2ccccc21	-17	14.6 µM [falling, partial curve]	–
Cc1cc(O)c(C(C)C)cc1NC(=O)c1cccc(Cl)c1	0.255	2.91 µM [falling, full curve]	–
CC(=O)OCC(=O)[C@@]1(O)CC[C@H]2[C@@H]3CCC4=CC(=O)C=C[C@]4(C)[C@@]3(Cl)[C@@H](Cl)C[C@@]21C	-23.4	6.51 µM [falling, full curve]	–
CCOC(=O)c1c(C)[nH]c(C)c1C(=O)COc1ncnc2cc([N+](=O)[O-])ccc12	19.5	0.651 µM [rising, full curve, poor fit]	6.51 µM [rising, single point]
COc1cc(/C=C2\SC(=O)N(Cc3ccc(Cl)cc3)C2=O)cc([N+](=O)[O-])c1O	3.68	0.82 µM [rising, single point]	–
C/[N+]([O-])=C\c1coc2ccccc2c1=O	31.1	3.26 µM [rising, single point]	32.6 µM [rising, single point]
CCCCNc1c([N+](=O)[O-])cc(C)cc1[N+](=O)[O-]	-13.2	29.1 µM [falling, single point]	–
CC(=O)Nc1ccc(NC(=O)C(C)OC(=O)CCCN2C(=O)c3cccc4cccc(c34)C2=O)cc1 (configuration not stated)	-50.8	–	29.1 µM [falling, single point]
N#Cc1cc(NC(=O)c2ccc(F)cc2)c(=O)n2c1[nH]c1ccccc12	-19.9	16.4 µM [falling, partial curve]	–
Cc1ccc(C)c2[nH]c(=O)c(CCNC(=O)CC(C)(C)C)cc12	10.4	0.731 µM [rising, full curve]	–
COC(=O)c1ccc(C(=O)OC)c(NC(=O)CN(C)Cc2ccccc2)c1	–	1.3 µM [rising, full curve]	–
COc1ccc(OC(C)c2nnc(N)s2)cc1 (configuration not stated)	35.9	–	–
Cc1cc(C(=O)CN2C(=O)NC3(CCCC3)C2=O)c(C)n1-c1ccc2c(c1)OCO2	7.71	0.13 µM [rising, full curve, poor fit]	–
O=C(CNC(=O)c1ccccc1)NCCO	-14.7	–	–
CCOc1nc(SCCOc2ccc(Cl)cc2Cl)nc(N(C)C)n1	30.6	2.06 µM [rising, partial curve]	2.91 µM [rising, partial curve]
CCN(CCNC(=O)c1ccc2nc(-c3ccccc3NC(C)=O)c(=O)[nH]c2c1)c1ccccc1	-76.9	2.59 µM [rising, full curve, poor fit]	3.66 µM [falling, partial curve]
O=c1[nH]c2ccccc2nc1/C=C(\O)C1CC1	13.3	0.0517 µM [rising, full curve]	–
S=C(Nc1ccc(Cl)cc1Cl)N1CCCCC1	5.09	29.1 µM [falling, single point]	–
CCc1cc(=O)oc2cc(OCC(=O)N3CCC[C@H]3C(=O)O)ccc12	5.99	29.1 µM [rising, single point]	–
CCN1C(=O)/C(=C2\SC(N3CCOCC3)=NC2=O)c2ccccc21	-22.2	29.1 µM [falling, partial curve, poor fit]	–

Compound	cell number change [%]	AC50 [1]	AC50 [2]
COc1ccccc1NC(=O)c1c(Br)cnn1C	32.3	–	3.26 µM [rising, single point]
CCCn1c(N2CCN(CC(=O)c3c(C)n(C)c4ccccc34)CC2)nc2c1c(=O)[nH]c(=O)n2C	5.62	2.59 µM [rising, full curve]	–
Cc1nn(Cc2c(F)cccc2Cl)c(C)c1[N+](=O)[O-]	-9	6.51 µM [rising, single point]	–
Cc1ccc(S(=O)(=O)NCCC(=O)Nc2ccc3c(c2)OCO3)cc1	-12.6	0.0651 µM [rising, single point]	–
N#Cc1ccc(NC(=O)Cn2c3[n+](c4ccc(C(F)(F)F)cc42)CCCCC3)cc1	-14	35.5 µM [falling, partial curve, poor fit]	–
COc1ccc(/C=N/NC(=O)CCn2cnc(-c3ccccc3)c2-c2ccccc2)cc1OC	-23.9	3.26 µM [rising, single point]	2.91 µM [rising, single point]
O=C(CCc1nc2ccccc2c(=O)[nH]1)NNC(=O)COc1ccccc1Cl	6.5	0.291 µM [falling, full curve, poor fit]	–
COc1ccc(C2(C)NC(=O)N(CC(=O)Nc3ccc4[nH]c(=O)[nH]c4c3)C2=O)cc1 (configuration not stated)	-16.5	–	–
CC(=O)Oc1cc(OC(C)=O)c2c(C)cc(=O)oc2c1	0.421	–	–
CN1N=C(c2ccc(F)c(F)c2)CSC1=NCc1ccccc1	67.4	0.58 µM [falling, single point]	20.6 µM [rising, single point]
COc1ccc2[nH]c(C)c(CCNC(=S)Nc3cccc(C)c3)c2c1	16.4	13 µM [rising, partial curve, poor fit]	–
O=[N+]([O-])c1cccc(N=NN(CCO)c2cccc([N+](=O)[O-])c2)c1	43.6	6.51 µM [rising, single point]	8.2 µM [rising, partial curve]
Cc1ccc(NC(=O)c2ccc(NS(=O)(=O)c3cccc4cccnc34)cc2)cc1	21.9	25.9 µM [rising, single point]	–
CCC(=O)c1ccc(OCC(O)Cn2c(C)nc3ccccc32)cc1 (configuration not stated)	-107	8.2 µM [falling, partial curve]	29.1 µM [falling, single point]
COc1ccc(OC)c(C(C[N+](=O)[O-])c2c(C)cc3ccccn23)c1 (configuration not stated)	-22.9	–	–
O=C(/C=C/c1ccc([N+](=O)[O-])cc1)NCCc1ccccc1	33.5	32.6 µM [rising, single point]	32.6 µM [rising, single point]
CCCN(CC(=O)Nc1ccc(F)c(F)c1F)C(=O)CCc1nc2ccccc2c(=O)[nH]1	48.3	–	25.9 µM [rising, single point]
Cc1ccc(C(=O)Nc2nnc(C3=COCCO3)o2)cc1C	5.6	–	–
CCOc1cc(C(C(=O)NCC2CCCO2)N(C(=O)Cn2nnc3ccccc32)c2ccccc2C)ccc1O (configuration not stated)	6.58	–	–
CC(C)N(C(=S)Nc1cccnc1)c1ccccc1	15.2	29.1 µM [rising, single point]	–

Compound	cell number change [%]	AC50 [1]	AC50 [2]
Cc1cc(C)nc(-n2nc(C)cc2NC(=O)c2cccc(S(=O)(=O)N3CCCCC3)c2)n1	10.5	0.82 µM [rising, full curve]	–
O=C(NNC(=O)c1sc2ccccc2c1Cl)Nc1ccc(Cl)cc1	80.7	–	29.1 µM [rising, single point]
O=C(O)c1cc(Cl)c(Cl)cc1C(=O)Nc1cccnc1	21.5	29.1 µM [falling, single point]	–
CCN(CC(=O)Nc1c(F)cccc1F)C(=O)CCc1nc2ccccc2c(=O)[nH]1	14.5	–	–
CCCc1cc(=O)oc2cc(C)cc(OCC(=O)O)c12	-32.6	–	0.0291 µM [falling, full curve, poor fit]
Cc1ccc(-c2nnc(CCC(=O)NCc3csc(C)n3)o2)s1	19.2	–	4.11 µM [rising, single point]
COc1ccc(C)cc1S(=O)(=O)N1CCC2(CC1)OCCN2S(=O)(=O)c1cccs1	76.1	–	7.31 µM [rising, partial curve]
CC1CCc2c(nc3ncnn3c2N2CCN(c3ccccc3F)CC2)C1 (configuration not stated)	76.2	–	29.1 µM [rising, single point]
Cc1ccc(C)c(Nc2nc3c(S(=O)(=O)c4ccccc4)nnn3c3ccccc23)c1	–	0.13 µM [rising, full curve, poor fit]	0.103 µM [rising, full curve, poor fit]
CCC(C)(C)n1nnnc1C(c1cccc(C#N)c1)N1CCN(c2cc(C)ccc2C)CC1 (configuration not stated)	-6.1	29.1 µM [falling, single point]	–
COc1ccc(C2=NO[C@@H]3C(=O)N(Cc4ccccc4)C(=O)[C@H]23)c(OC)c1	1.17	0.082 µM [rising, full curve, poor fit]	–
COc1ccc(-n2c(Cn3c(=O)sc4ccccc43)nnc2SCC(=O)N2CCCC2)cc1	20.4	–	–
CCn1nc(NC(C)=O)c2cc3ccc(C)cc3nc21	21.3	4.61 µM [rising, partial curve]	–
CCN(CC)S(=O)(=O)c1ccc(N(C)Cc2ccc(C(F)(F)F)cc2)nc1	-35.1	–	29.1 µM [falling, single point]
COc1ccc(NC(=O)N(CCC(C)C)C(C)c2ccccn2)c(OC)c1 (configuration not stated)	-58.3	0.651 µM [falling, full curve, poor fit]	10.3 µM [falling, partial curve]
CSc1sc(C(=O)NNC(C)=O)c2c1C=CCC2	-24.7	4.61 µM [rising, single point]	–
O=C1C=C(NCc2ccco2)C2(CCCCC2)O1	-19	6.51 µM [falling, single point]	–
CCOC(=O)c1ccc(CSc2n[nH]c(C)n2)o1	-5.19	–	–
CC1CCN(c2ccc3nnc(CCC(=O)Nc4cc(F)ccc4F)n3n2)CC1	6.11	29.1 µM [rising, single point]	–

Shown field by field: entries from further up
CC1CCc2c(nc3ncnn3c2N2CCN(c3ccccc3F)CC2)C1 (configuration not stated)
  cell number change [%]: 76.2; AC50 [2]: 29.1 µM [rising, single point]
Cc1ccc(C)c(Nc2nc3c(S(=O)(=O)c4ccccc4)nnn3c3ccccc23)c1
  AC50 [1]: 0.13 µM [rising, full curve, poor fit]; AC50 [2]: 0.103 µM [rising, full curve, poor fit]
CCC(C)(C)n1nnnc1C(c1cccc(C#N)c1)N1CCN(c2cc(C)ccc2C)CC1 (configuration not stated)
  cell number change [%]: -6.1; AC50 [1]: 29.1 µM [falling, single point]
COc1ccc(C2=NO[C@@H]3C(=O)N(Cc4ccccc4)C(=O)[C@H]23)c(OC)c1
  cell number change [%]: 1.17; AC50 [1]: 0.082 µM [rising, full curve, poor fit]
